According to PMC3499525 (PLoS ONE, 2012):

Legend:
I2 imidazoline receptor = I2 imidazoline receptor binding assay ([3H]idazoxan); conditions: [3H]idazoxan 2 nM, rat cerebral cortex
I1 imidazoline receptor = I1 imidazoline receptor binding assay ([3H]clonidine); conditions: [3H]clonidine 15 nM, bovine adrenal medulla glands

## c1ccc2c(c1)OCC(C1=NCCN1)O2 (centres unmarked) [idazoxan, reference compound]
I2 imidazoline receptor
  nH (Hill coefficient): 1.7

## C1COC(NC(C2CC2)C2CC2)=N1 [rilmenidine, reference compound]
I1 imidazoline receptor
  nH (Hill coefficient): 0.9
